# Only a part is listed here, and it is no random draw. At the low end of the ranking the order means little.
# By UniProt entry, the sequences of proteins in these tests, tags left out. Where a name states a change or a piece, a line headed by the entry shows the natural chain unless it says otherwise.
# UniProt Q9Y603: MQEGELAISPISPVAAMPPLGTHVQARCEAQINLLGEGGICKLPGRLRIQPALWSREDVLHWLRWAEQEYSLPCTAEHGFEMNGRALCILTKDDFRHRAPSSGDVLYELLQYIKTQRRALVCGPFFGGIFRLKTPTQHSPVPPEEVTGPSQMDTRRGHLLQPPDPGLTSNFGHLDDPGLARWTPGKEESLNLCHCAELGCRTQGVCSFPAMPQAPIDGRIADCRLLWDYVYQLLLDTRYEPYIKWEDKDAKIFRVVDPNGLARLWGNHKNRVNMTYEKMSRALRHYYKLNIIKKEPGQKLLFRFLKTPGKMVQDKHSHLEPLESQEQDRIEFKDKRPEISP
# UniProt P41212: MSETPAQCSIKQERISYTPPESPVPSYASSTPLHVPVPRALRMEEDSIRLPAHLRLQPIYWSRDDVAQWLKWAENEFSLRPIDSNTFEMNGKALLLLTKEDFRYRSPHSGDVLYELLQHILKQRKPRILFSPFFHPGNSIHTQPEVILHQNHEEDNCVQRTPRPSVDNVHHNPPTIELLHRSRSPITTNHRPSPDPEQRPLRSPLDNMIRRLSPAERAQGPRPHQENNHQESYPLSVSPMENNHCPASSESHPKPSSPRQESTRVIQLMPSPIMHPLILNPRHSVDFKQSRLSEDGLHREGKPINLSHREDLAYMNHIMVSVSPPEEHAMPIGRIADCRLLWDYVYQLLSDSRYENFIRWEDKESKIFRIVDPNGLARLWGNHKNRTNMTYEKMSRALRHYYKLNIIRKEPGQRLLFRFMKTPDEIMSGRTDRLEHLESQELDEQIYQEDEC
# Biological target: T1, ELF3 (UniProt P78545)
# T1 sequence: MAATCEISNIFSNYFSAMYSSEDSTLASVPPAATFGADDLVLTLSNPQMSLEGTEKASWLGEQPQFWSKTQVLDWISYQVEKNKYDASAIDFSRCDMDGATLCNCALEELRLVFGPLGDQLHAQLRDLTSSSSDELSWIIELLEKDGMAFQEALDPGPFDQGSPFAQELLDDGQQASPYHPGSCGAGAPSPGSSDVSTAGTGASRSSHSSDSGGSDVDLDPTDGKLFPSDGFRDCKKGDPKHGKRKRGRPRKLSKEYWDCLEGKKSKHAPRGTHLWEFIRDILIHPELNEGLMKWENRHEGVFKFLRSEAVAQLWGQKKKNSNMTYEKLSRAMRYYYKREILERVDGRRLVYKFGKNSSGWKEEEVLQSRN
# Assay: DAPPL (digital affinity profiling via proximity ligation, sequencing)
# Conditions: 10 mM Tris-HCl pH 7.5, 50 mM NaCl, 1 mM DTT, 4% glycerol, room temperature, 30 min; GST-TFs on glutathione beads, 16-mer random dsDNA library, 0.1% …; high values mean tight binding; double strand, one strand shown; scale: fold enrichment (6-mer frequency, TF over GST control)
row,Sequence,binding signal
1,TGACGT,0.714
2,GAGACG,0.351
3,ACACAG,0.948
4,AGACTG,0.481
5,GGGGTT,0.796
6,ATAGAG,0.889
7,CAGCCG,0.688
8,GAGATC,0.453
9,AGCGCA,0.833
10,CGAGTG,0.768
11,TGCGGG,0.817
12,GTCGGG,0.25
13,GAGCAT,0.803
14,ACAGGT,0.797
15,CAGTAG,0.605
16,CGTGGT,0.541
17,GGGGTC,0.695
18,TGCCGT,0.809
19,GAGAGT,0.313
20,GGACAA,0.769

row,Sequence,binding signal
1,GATAGG,0.949
2,GCGTAC,0.812
3,CAGGAG,0.269
4,GGCGGG,0.274
5,GAGTCC,0.354
6,GAGTGG,0.626
7,CAAGTG,0.782
8,GTCATA,0.731
9,ACTGAG,0.742
10,AGGCAT,0.751
11,GACTAA,0.885
12,GGTGCG,0.595
13,CGTGAG,0.125
14,TAGACG,0.794
15,GCATGG,0.839
16,TGAGAC,0.539
17,CCTGAG,0.818
18,GGGTGC,0.79
19,CGTTGA,0.779

# Biological target: ETV7 (UniProt Q9Y603)
# Assay: as above
# Conditions: 10 mM Tris-HCl pH 7.5, 50 mM NaCl, 1 mM DTT, 4% glycerol, room temperature, 30 min; GST-TFs on glutathione beads, 16-mer random dsDNA library, 0.1% …; high values mean tight binding; double strand, one strand shown; scale: fold enrichment (6-mer frequency, TF over GST control)
row,Sequence,binding signal
1,TGACGT,0.809
2,GAGACG,0.361
3,ACACAG,1.13
4,AGACTG,0.574
5,GGGGTT,0.927
6,ATAGAG,0.865
7,CAGCCG,0.77
8,GAGATC,0.506
9,AGCGCA,0.994
10,CGAGTG,0.775
11,TGCGGG,0.854
12,GTCGGG,0.273
13,GAGCAT,0.706
14,ACAGGT,0.769
15,CAGTAG,0.583
16,CGTGGT,0.646
17,GGGGTC,0.712
18,TGCCGT,0.951
19,GAGAGT,0.431
20,GGACAA,0.933

row,Sequence,binding signal
1,GATAGG,0.905
2,GCGTAC,0.931
3,CAGGAG,0.343
4,GGCGGG,0.42
5,GAGTCC,0.419
6,GAGTGG,0.59
7,CAAGTG,0.814
8,GTCATA,0.75
9,ACTGAG,0.797
10,AGGCAT,0.899
11,GACTAA,0.931
12,GGTGCG,0.66
13,CGTGAG,0.173
14,TAGACG,0.692
15,GCATGG,0.878
16,TGAGAC,0.523
17,CCTGAG,0.776
18,GGGTGC,0.89
19,CGTTGA,0.851

# Biological target: ETV6 (UniProt P41212)
# Assay: as above
# Conditions: 10 mM Tris-HCl pH 7.5, 50 mM NaCl, 1 mM DTT, 4% glycerol, room temperature, 30 min; GST-TFs on glutathione beads, 16-mer random dsDNA library, 0.1% …; high values mean tight binding; double strand, one strand shown; scale: fold enrichment (6-mer frequency, TF over GST control)
row,Sequence,binding signal
1,TGACGT,0.911
2,GAGACG,0.321
3,ACACAG,0.959
4,AGACTG,0.536
5,GGGGTT,0.801
6,ATAGAG,0.918
7,CAGCCG,0.659
8,GAGATC,0.442
9,AGCGCA,0.948
10,CGAGTG,0.861
11,TGCGGG,0.854
12,GTCGGG,0.214
13,GAGCAT,0.735
14,ACAGGT,0.786
15,CAGTAG,0.629
16,CGTGGT,0.523
17,GGGGTC,0.637
18,TGCCGT,0.827
19,GAGAGT,0.361
20,GGACAA,0.858

row,Sequence,binding signal
1,GATAGG,0.773
2,GCGTAC,0.924
3,CAGGAG,0.272
4,GGCGGG,0.33
5,GAGTCC,0.378
6,GAGTGG,0.605
7,CAAGTG,0.724
8,GTCATA,0.662
9,ACTGAG,0.667
10,AGGCAT,0.813
11,GACTAA,0.965
12,GGTGCG,0.613
13,CGTGAG,0.125
14,TAGACG,0.759
15,GCATGG,0.812
16,TGAGAC,0.505
17,CCTGAG,0.823
18,GGGTGC,0.857
19,CGTTGA,0.751
